Test results reported in the supplement of paper PMC9578143, “Small-Molecule Ebselen Binds to YTHDF Proteins Interfering with the Recognition of N^6-Methyladenosine-Modified RNAs” (ACS Pharmacology & Translational Science, 2022).
This is one part of the list. Part of the spread comes from offsets between plates or batches.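 Hits were defined as a z-score below −3.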

target: T1, YTHDF1 YTH domain (aa 365-554) (UniProt Q9BYJ9); test: tryptophan fluorescence intensity z-score (mean); higher = higher fluorescence, less quenching (negative = binding / quenching); details: 10 µM
T1 sequence (whole entry): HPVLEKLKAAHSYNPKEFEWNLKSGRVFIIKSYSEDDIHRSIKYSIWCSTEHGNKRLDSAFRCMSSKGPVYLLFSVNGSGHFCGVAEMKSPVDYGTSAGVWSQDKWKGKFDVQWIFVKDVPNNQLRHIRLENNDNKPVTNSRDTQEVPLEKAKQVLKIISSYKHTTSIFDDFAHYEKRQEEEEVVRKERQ

Tryptophan fluorescence intensity z-score, inactive:
C[C@]12CC[C@H]3C(=CCc4cc(O)ccc43)[C@@H]1CCC2=O (plate: M 3-4) 0.061
C[C@]12C=CC(=O)C=C1CC[C@@H]1[C@@H]2[C@@H](O)C[C@@]2(C)[C@H]1CC[C@]2(O)C(=O)COP(=O)(O)O (plate: M 11-12) 0.463
CCCCCC/C=C\CCCCCCCc1cccc(O)c1C(=O)O (plate: M 19-20) 0.158
N=C(N)N (plate: M 23-24) 0.663
CC(=O)Oc1cc(C)c2c(c1C(OC(C)=O)OC(C)=O)Oc1c(c(C)c(OC(C)=O)c3c1C(OC(C)=O)OC3=O)OC2=O (stereo not given) (plate: M 15-16) -0.0494
COc1ccc2oc(-c3ccccc3)c(OC)c(=O)c2c1 (plate: M 17-18) -0.331
O=C(O)c1cc(=O)c2ccccc2o1 (plate: M 21-22) 0.106
CC(=O)CC(=O)CCC(=O)O (plate: M 21-22) 0.594
NS(=O)(=O)c1cc(C(=O)O)c(NCc2ccco2)cc1Cl (plate: M 3-4) -0.423
COc1ccc2ccc(=O)oc2c1 (plate: M 15-16) 0.34
O=C(O)c1cc2cc(Cl)ccc2[nH]1 (plate: M 21-22) 0.775
Cc1cc(C2CCCCC2)n(O)c(=O)c1 (plate: M 1-2) -0.188
NS(=O)(=O)c1cc2c(cc1Cl)N=CNS2(=O)=O (plate: M 1-2) -0.158
C[C@H](N)C(=O)NC(Cc1ccccc1)C(=O)O (mixture of isomers) (plate: M 23-24) 0.546
CN[C@H](CC(C)C)C(=O)N[C@H]1C(=O)N[C@@H](CC(N)=O)C(=O)N[C@H]2C(=O)N[C@H]3C(=O)N[C@H](C(=O)N[C@H](C(=O)O)c4cc(O)cc(O)c4-c4cc3ccc4O)[C@H](O)c3ccc(c(Cl)c3)Oc3cc2cc(c3O[C@@H]2O[C@H](CO)[C@@H](O)[C@H](O)[C@H]2O[C@H]2C[C@](C)(N)[C@H](O)[C@H](C)O2)Oc2ccc(cc2Cl)[C@H]1O (plate: M 5-6) -0.0451
CNS(=O)(=O)Cc1ccc2[nH]cc(CCN(C)C)c2c1 (plate: M 11-12) 0.0319
O=c1c(O)c(-c2ccc(O)c(O)c2)oc2cc(O)ccc12 (plate: M 19-20) -0.659
CC1=CC2C(C(C)C)CCC(C)(O)C2CC1 (stereo not given) (plate: M 17-18) 0.0902
C=NC(C(=O)NC1C(=O)N2C1SC(C)(C)C2C(=O)O)c1ccccc1 (stereo not given) (plate: M 21-22) 0.398
NC(=O)c1ncn([C@@H]2O[C@H](CO)[C@@H](O)[C@H]2O)n1 (plate: M 9-10) 0.244
CCC(CCC(C)C1CCC2C3CCC4CC(O)CCC4(C)C3CCC12C)C(C)C (stereo not given) (plate: M 19-20) 0.681
CCOC(=O)[C@H](CCc1ccccc1)N[C@@H](C)C(=O)N1[C@H](C(=O)O)C[C@@H]2CCC[C@@H]21 (plate: M 9-10) -0.382
O=C(Nc1ccc(C(=O)O)c(O)c1)c1ccccc1 (plate: M 11-12) -0.0307
CCCCOC(=O)c1ccc(N)cc1 (plate: M 5-6) 0.252
C[C@H]1COC2=C1C(=O)C(=O)c1c2ccc2c1CCCC2(C)C (plate: M 21-22) -0.421
CCCCC1=NC2(CCCC2)C(=O)N1Cc1ccc(-c2ccccc2-c2nnn[nH]2)cc1 (plate: M 9-10) -0.211
CCOc1ccc(C(=O)c2ccc(OC)c(O)c2O)cc1 (plate: M 15-16) -0.654
N=C(N)NC(=O)c1nc(Cl)c(N)nc1N (plate: M 1-2) -0.0139
CC(=O)O[C@H]1CC[C@]2(C)C(C[C@@H](OC(C)=O)[C@]3(C)C4=CC(=O)O[C@H](c5ccoc5)[C@@]4(C)CCC23)C1(C)C (stereo partly drawn) [3-DEOXO-3beta-ACETOXYDEOXYDIHYDROGEDUNIN] (plate: M 13-14) -0.131
NC1(C(=O)O)CCC1 (plate: M 23-24) 0.71

Sorted by length of the SMILES (rising): part of the list above
Tryptophan fluorescence intensity z-score, inactive:
O=C(O)c1cc2cc(Cl)ccc2[nH]1 (plate: M 21-22) 0.775
CCOc1ccc(C(=O)c2ccc(OC)c(O)c2O)cc1 (plate: M 15-16) -0.654
NS(=O)(=O)c1cc(C(=O)O)c(NCc2ccco2)cc1Cl (plate: M 3-4) -0.423
